According to patent US20110092488A1, “Quninoline Methanol Compounds for the Treatment and Prevention of Parasitic Infections” (priority 2005, published 2011):

Test system: primary rat forebrain neurons
Test: Neurocytotoxicity assay (MTT)
Protocol: The neurocytotoxicity assay of AAQMs was conducted as per Dow et al.; The antimalarial potential of 4-quinolinecarbinolamines may be limited due to neurotoxicity and cross-resistance in mefloquine-resistant Plasmodium falciparum strains; Chemother. (48) 2624-2632 (2004) and is incorporated herein, by reference. This assay utilizes primary rat forebrain neurons and is a multi-endpoint screen. […] The AAQMs outlined in Table 1 were screened at 10, 100 and 1000 μM in triplicate, and the reduction in viability observed was determined using the 3-(4,5-dimethylthiazol-2-yl)-2,5-diphenyltetrazolium bromide (MTT) assay as per Dow et al., discussed above. Approximate IC50 values were calculated on the basis of the level of inhibition observed at each concentration. […] IC50s were calculated using Prism. […] Neurons were exposed to DNQX (100 μM) or magnesium (12 mM) for 5 min, followed by mefloquine (25 μM) or WR069878 (250 μM) for 20 min after which reduction in cell viability was determined. […] The effects of mefloquine and WR069878 on neuronal calcium homeostasis were assessed utilizing confocal microscopy as per Dow et al, as discussed in Antimicrob Agents Chemother. […] Subsequent changes in neuronal calcium homeostasis were recorded as fluctuations in the emitted fluorescence of fluo-3-complexed calcium at 530 nm (excitation was 488 nm). […]

OC(c1cc(C(F)(F)F)nc2c(C(F)(F)F)cccc12)C1CCCCN1 (centres unmarked) [Mefloquine, reference compound]
Therapeutic index relative to mefloquine: 1.0 | Therapeutic index (*1000) (neuron IC50 over TM91C235 IC50, *1000): 0.57
